# Test results as given in patent US20080253967A1, “Halo-Stilbene Derivatives And Their Use For Binding And Imaging Of Amyloid Plaques” (priority 2007, published 2008).
# By UniProt entry, the sequences of proteins in these tests, tags left out. Residues count along the entry.
# UniProt P05067, 672-711 limits assumed: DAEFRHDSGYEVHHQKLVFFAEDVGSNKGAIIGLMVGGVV
# Assays:
# amyloid plaques = amyloid plaques (Homo sapiens, UniProt P05067); experiment: Inhibition of ^125I-IMPY binding in AD brain homogenates; settings: read-out: Binding Affinity (Ki vs. ^125I-IMPY)
# Source text: Moreover, the binding of IMPY appears to be specific for cortical vs. cerebellar tissue from patients with AD, is largely absent in cortex homogenates from elderly control brains, and is fully displaceable by the presumed amyloid imaging agent PIB. […] Thus, inhibition of ^125I-IMPY binding in human AD brain homogenates was taken as an assay for the potential of test compounds to bind to amyloid plaques.
# Postmortem brain tissue was obtained and neuropathological diagnosis was confirmed in accordance with the NIA-Reagan Institute Consensus Group criteria. Homogenates were then prepared from dissected gray matter, pooled in phosphate buffered saline and aliquoted into 1-ml portions (100 mg wet tissue/ml), which could be stored at −70° C. for 3-6 months without loss of binding signal.
# For the binding assays brain homogenates were incubated with ^125I-IMPY (0.04-0.06 nM diluted in phosphate buffered saline (PBS)) and test compound (10^−5-10^−10 M diluted in PBS containing 0.1% bovine serum albumin (BSA)). […] The bound and free radioactivity was separated by vacuum filtration followed by 2×3 ml washes of PBS. […]
# For the binding assays brain homogenates were incubated with ^125I-IMPY (0.04-0.06 nM diluted in PBS) and test compound (10^−5-10^−10 M diluted in PBS containing 0.1% BSA). […] The bound and free radioactivity was separated by vacuum filtration followed by 2×3 ml washes of PBS. […]
# [1] = Organ distribution in normal mice after i.v. injection; settings: normal male mice
compound,measurement,setting,value
CNc1ccc(/C=C/c2cc(I)cc(OCCO)c2)cc1,Ki,amyloid plaques,9.4 nM
same,Biodistribution Brain (% dose/g in brain),[1]; 2 min,3.40 ± 0.3 % dose/g
same,Biodistribution Brain (% dose/g in brain),[1]; 60 min,0.43 ± 0.05 % dose/g

# The match of structure and compound is tentative.
